Assay in all cases: proximity ligation; in situ Duolink PLA in fixed third-instar larval tissues (eye-antennal discs, salivary gland, brain) with pairs of mouse and rabbit primary antibodies; single-antibody negative controls
One assay addresses T1, Git-RFP (Drosophila) (UniProt Q95RG8).
T1 sequence: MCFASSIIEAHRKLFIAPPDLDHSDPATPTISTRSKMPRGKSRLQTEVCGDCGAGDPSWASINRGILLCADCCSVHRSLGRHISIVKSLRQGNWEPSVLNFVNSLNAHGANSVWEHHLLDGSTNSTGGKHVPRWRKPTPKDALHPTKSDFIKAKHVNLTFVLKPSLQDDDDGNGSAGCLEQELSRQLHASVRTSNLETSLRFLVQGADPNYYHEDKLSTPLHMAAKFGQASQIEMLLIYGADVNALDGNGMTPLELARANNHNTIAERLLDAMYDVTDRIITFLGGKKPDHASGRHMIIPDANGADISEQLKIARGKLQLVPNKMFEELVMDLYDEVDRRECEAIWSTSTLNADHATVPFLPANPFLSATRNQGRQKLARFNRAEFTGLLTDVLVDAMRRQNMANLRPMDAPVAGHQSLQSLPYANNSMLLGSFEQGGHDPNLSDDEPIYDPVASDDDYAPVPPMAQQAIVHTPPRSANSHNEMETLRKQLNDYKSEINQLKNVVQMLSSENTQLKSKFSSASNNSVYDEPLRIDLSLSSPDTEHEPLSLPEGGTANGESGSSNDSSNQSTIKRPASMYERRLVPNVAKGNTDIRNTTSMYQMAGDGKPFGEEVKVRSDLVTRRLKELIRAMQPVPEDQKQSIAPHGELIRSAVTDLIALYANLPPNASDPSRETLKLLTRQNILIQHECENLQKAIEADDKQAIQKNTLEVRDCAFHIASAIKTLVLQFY

Assay [1] addresses T2, atypical protein kinase C (aPKC) (Drosophila (endogenous in larval tissues)) (UniProt A1Z9X0).
T2 sequence: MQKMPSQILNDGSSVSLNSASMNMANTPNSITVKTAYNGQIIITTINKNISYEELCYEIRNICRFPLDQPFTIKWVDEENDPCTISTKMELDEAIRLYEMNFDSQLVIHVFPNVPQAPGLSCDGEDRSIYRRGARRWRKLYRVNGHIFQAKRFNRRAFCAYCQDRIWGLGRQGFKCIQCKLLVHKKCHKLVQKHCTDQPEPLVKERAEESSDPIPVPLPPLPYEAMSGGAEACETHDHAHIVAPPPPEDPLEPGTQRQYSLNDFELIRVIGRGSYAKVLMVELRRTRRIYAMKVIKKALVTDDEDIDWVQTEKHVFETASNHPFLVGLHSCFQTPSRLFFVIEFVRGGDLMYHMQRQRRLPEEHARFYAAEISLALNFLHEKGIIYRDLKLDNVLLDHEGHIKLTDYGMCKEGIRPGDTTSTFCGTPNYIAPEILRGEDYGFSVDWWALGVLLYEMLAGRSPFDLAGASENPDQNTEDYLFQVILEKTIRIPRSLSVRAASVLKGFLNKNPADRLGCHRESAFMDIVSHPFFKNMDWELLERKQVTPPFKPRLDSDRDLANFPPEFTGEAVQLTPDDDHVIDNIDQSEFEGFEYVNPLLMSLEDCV

The target in assay [2] is T3, Vap33 (Drosophila (endogenous in larval tissues)) (UniProt Q9W4N8).
T3 sequence: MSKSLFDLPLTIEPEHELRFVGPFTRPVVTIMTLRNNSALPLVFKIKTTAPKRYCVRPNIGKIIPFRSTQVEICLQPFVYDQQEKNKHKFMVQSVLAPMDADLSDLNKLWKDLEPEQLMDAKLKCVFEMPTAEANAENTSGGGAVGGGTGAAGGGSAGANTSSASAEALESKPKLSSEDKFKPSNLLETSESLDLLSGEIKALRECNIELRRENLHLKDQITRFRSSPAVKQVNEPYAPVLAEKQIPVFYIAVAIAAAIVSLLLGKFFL

These are yes or no findings as the source states them, for the method shown. Binding seen in cells or lysates may run through a third protein. Some entries that bind do so weakly or less than the wild type. For part of these data: Tags and fused reporters may be left off the sequences shown.

B1: Lgl-GFP (endogenously GFP-tagged Lgl) (protein, UniProt P08111 1-1161)
chain: MLKFIRGKGQQPSADRHRLQKDLFAYRKTAQHGFPHKPSALAYDPVLKLMAIGTQTGALKVFGQPGVELYGQHTLLNNSASELNVQLLEWVYGTGRILSLTAANQLILWEPVGATLLPIKTLPFDGKLKKVSSLCCSLSKDLLWIGTEGGNIYQLDLHTFTIKEPVIYHDVVLEQVPPAYKLNPGAIESIRQLPNSPSKLLVAYNRGLCVLWDFESASVQRAYIAPGHGQSVGLTVNFEGSEFTWYHADGSYATWSIDNPEPPSNVNYVPYGPDPCKSINRLYKGKRRSNDVIVFSGGMPRSAYGDHNCVSVHASDGHKVCLDFTSKVIDFFVTFENNRDVAEVLVVLLEEELCAYDLTDPNICAIKAPYLHSVHASAVTCNYLASEVVQSVYESILRAGDEQDIDYSNISWPITGGTLPDNLEESVEEDATKLYEILLTGHEDGSVKFWDCTGVLLKPIYNFKTSSIFGSESDFRDDAAADMSAEQVDEGEPPFRKSGLFDPYSDDPRLAVKKIAFCPKTGQLIVGGTAGQIVIADFIDLPEKVSLKYISMNLVSDRDGFVWKGHDQLNVRSNLLDGEAIPTTERGVNISGVLQVLPPASITCMALEASWGLVSGGTAHGLVLFDFKNFVPVFHRCTLNPNDLTGAGEQLSRRKSFKKSLRESFRKLRKGRSTRTNQSNQVPTTLEARPVERQIEARCADDGLGSMVRCLLFAKTYVTNVNITSPTLWSATNASTVSVFLLHLPPAQTAATAVPSASGNAPPHMPRRISAQLAKEIQLKHRAPVVGISIFDQAGSPVDQLNAGENGSPPHRVLIASEEQFKVFSLPQLKPINKYKLTANEGARIRRIHFGSFSCRISPETLQSMHGCSPTKSTRSHGDGEADPNISGSLAVSRGDVYNETALICLTNMGDIMVLSVPELKRQLNAAAVRREDINGVSSLCFTNSGEALYMMSSSELQRIALATSRVVQPTGVVPVEPLENEESVLEENDAENNKETYACDEVVNTYEIKNPSGISICTRPAEENVGRNSVQQVNGVNISNSPNQANETISSSIGDITVDSVRDHLNMTTTTLCSINTEETIGRLSVLSTQTNKASTTVNMSEIPNINISNLEDLESKRNTTETSTSSVVIKSIITNISHEKTNGDNKIGTPKTAPEESQF
Regarding B1, the binding entry (with Git-RFP (Drosophila); in assay [1]) was “binds” each time.

B2: Git-RFP (protein, UniProt Q95RG8 1-731)
chain: T1 sequence
Regarding B2, in assay [2], the binding result was “binds”.

Source of the values: PMC10911279.
